In PubChem BioAssay AID2685 (National Center for Advancing Translational Sciences (NCATS), 2010):
The list shows a part of the results. These are further read-outs of the screen, such as a control signal, another cell line or another target. No call is given for them. Compounds called inactive in the main read-out are mostly missing here. Potencies come from curve fits of mixed quality, noted in brackets.

Assay: qHTS Assay for Lipid Storage Modulators in Drosophila S3 Cells;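 as to cell number change: cells counted by Cell Tracker Red CMTPX staining in the red channel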
Details: BODIPY lipid droplet fluorescence, 18-24 h; for cell number change: measured here: cell count max response, cells fed with added oleic acid
Outline: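 Drosophila S3 cells got compounds at several concentrations plus oleic acid (400 uM solution). Laser-scanning cytometry with 488 nm excitation read lipid droplets at 500-530 nm and cells at 575-640 nm. Percent activity was relative to 20 uM Triacsin C.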

[1] = measured here: lipid fluorescence (Fed channel) AC50, cells fed with added oleic acid
[2] = measured here: cell number channel AC50, cells fed with added oleic acid

## COc1ccc(Oc2nc(-c3ccccc3)ncc2S(=O)(=O)c2ccccc2)cc1
[1]
  AC50: 0.0058 µM [rising, full curve, poor fit]

## CC(C)(O)C#Cc1ccccc1C(=O)NC(CC(N)=O)C(=O)O (centres undefined)
[2]
  AC50: 3.66 µM [falling, single point]

## O=S(=O)(c1ccc(Oc2ccc(Br)cc2)cc1)N1CCOCC1
[1]
  AC50: 11.6 µM [falling, partial curve, poor fit]

## Cc1c(/C=N/n2cnnc2)c2ccccc2n1CCOc1ccccc1
  cell number change: -29.2%
[1]
  AC50: 18.4 µM [rising, single point]

## O=C1c2ccccc2NC(c2ccccn2)N1c1ccc(Cl)cc1 (centres undefined)
  cell number change: 0.0503%

## O=S(=O)(Nc1nc2ccccc2nc1Cl)c1ccc(Br)cc1
  cell number change: 7.71%
[1]
  AC50: 4.61 µM [rising, single point]

## COCCN(CCOC)c1nc(S(=O)(=O)c2ccc(C)cc2)c(Cl)s1
  cell number change: 40.2%
[2]
  AC50: 9.2 µM [rising, partial curve]
[1]
  AC50: 4.11 µM [rising, single point]

## CC#C[C@]1(O)CC[C@H]2[C@@H]3CCC4=CC(=O)CCC4=C3[C@@H](c3ccc(N(C)C)cc3)C[C@@]21C
  cell number change: 31.1%
[1]
  AC50: 18.4 µM [rising, partial curve]

## CC(C)NC(=O)c1ccccc1NC(=O)/C=C/c1cccc([N+](=O)[O-])c1
  cell number change: -71.7%
[2]
  AC50: 16.4 µM [falling, partial curve]
[1]
  AC50: 23.1 µM [falling, single point]

## COc1ccc(C(=O)Nc2nc(C)c(C(C)=O)s2)cc1S(=O)(=O)N1CCOCC1
  cell number change: -5.84%

## COC(=O)c1c(NC(=O)C2(C)Cc3ccccc3C(=O)O2)sc2c1CCCC2 (centres undefined)
  cell number change: 6.17%
[1]
  AC50: 2.06 µM [rising, partial curve]

## CN(CC(=O)Nc1ccccc1Cl)C(=O)COC(=O)/C=C/c1cccs1
  cell number change: -3.01%
[1]
  AC50: 0.82 µM [rising, full curve, poor fit]

## O=C(Cc1ccc2c(c1)CCCC2)Nc1ccc2ccccc2c1
[2]
  AC50: 0.731 µM [falling, single point]

## CCN(CC)S(=O)(=O)c1ccc(S(=O)(=O)NCc2cccs2)cc1
  cell number change: 21.1%
[2]
  AC50: 4.61 µM [rising, single point]

## O=C(Oc1cccc(O)c1)C1CCCCC1
  cell number change: 20.6%
[1]
  AC50: 5.17 µM [falling, single point]

## O=C(Nc1ccc(NC(=O)c2ccccc2F)cn1)c1ccco1
  cell number change: 36.8%

## CCOc1ccc(C(=O)NC(=S)Nc2cccc(S(=O)(=O)NC3=NCCC3)c2)cc1
  cell number change: 82.6%

## CCOc1ccc(CCNC(=O)C2CC=CCC2C(=O)OC(C)C)cc1OCC (centres undefined)
  cell number change: -18%
[1]
  AC50: 18.4 µM [falling, single point]

## O=C1CCCc2ccccc2N1Cc1ccc(F)cc1
  cell number change: 0.264%
[2]
  AC50: 0.291 µM [falling, single point]

## CCCc1[nH]nc2c1C(c1cc(OC)ccc1F)C(C#N)=C(N)O2 (centres undefined)
  cell number change: -50.1%
[2]
  AC50: 16.4 µM [falling, partial curve]
[1]
  AC50: 18.4 µM [falling, single point]

## O=C(NCCC1=CCCCC1)C1CCN(S(=O)(=O)c2cccc(C(F)(F)F)c2)CC1
  cell number change: -6.19%
[1]
  AC50: 7.31 µM [falling, partial curve]

## O=C(NCc1n[nH]c(=S)n1-c1ccccc1)c1cccs1
  cell number change: -18%
[1]
  AC50: 6.51 µM [rising, single point]

## CC(=Nc1ccc2c(c1)nc(CO)n2C)C1=C(O)CC(C)(C)CC1=O
[2]
  AC50: 2.31 µM [falling, partial curve, poor fit]
[1]
  AC50: 0.82 µM [falling, full curve]

## N#Cc1cn(-c2ccccc2)nc1-c1ccccc1
  cell number change: -26.4%
[1]
  AC50: 29.1 µM [falling, single point]

## Cc1ccc2[nH]c(=O)c(CN(C(=O)c3cccc([N+](=O)[O-])c3)C(C)(C)C)cc2c1
  cell number change: 2.88%

## COC(=O)c1cc(NC(=O)c2cccc(C(F)(F)F)c2)c(=O)oc1C/C=N/OCc1cccc(Cl)c1Cl
  cell number change: 4.11%
[1]
  AC50: 6.51 µM [falling, single point]

## CCC(C)NC(=O)CC1Oc2ccc(Cl)cc2NC1=O (centres undefined)
  cell number change: 2.9%
[1]
  AC50: 0.231 µM [falling, full curve, poor fit]

## O=C(NNC(=O)c1ccc(Br)s1)c1ccc(F)c(S(=O)(=O)N2CCOCC2)c1
  cell number change: -15.9%
[1]
  AC50: 0.082 µM [rising, full curve, poor fit]

## CCCOC(=O)Nc1cc(OC)c(Cl)cc1OC
  cell number change: 14.4%
[1]
  AC50: 14.6 µM [rising, partial curve]

## CCN(C(=O)CSc1nc2ccccc2n1CC)C1CCS(=O)(=O)C1 (centres undefined)
  cell number change: 40.3%
[1]
  AC50: 29.1 µM [rising, single point]

## CCOc1ccc(N2C(=O)CC(C(C)c3ccccc3)C2=O)cc1 (centres undefined)
  cell number change: -21.5%

## CC1CC(C)CN(C(=O)CCc2nnc3ccc(N4CCCCC4)nn23)C1 (centres undefined)
  cell number change: 11.8%

## Cc1ccc(S(=O)(=O)c2ccc(Cl)cc2)cc1S(=O)(=O)NC(C)C(=O)O (centres undefined)
  cell number change: 83.3%
[2]
  AC50: 8.2 µM [rising, partial curve]

## Cc1cc2nc(-c3ccc(SCC(=O)Nc4ccc(S(=O)(=O)NC5CC5)cc4)nc3)[nH]c2cc1C
  cell number change: 4.96%
[1]
  AC50: 2.31 µM [rising, single point]

## Cc1cc(C)nc(SCc2nc3ccccc3n2C)n1
  cell number change: 0.765%
[1]
  AC50: 3.26 µM [rising, partial curve]

## CC1(C)CC(NS(=O)(=O)c2cccc3ccccc23)CC(C)(C)N1
  cell number change: 5.41%

## C=CCN1C(=O)/C(=C2/Sc3ccccc3N2CCCS(=O)(=O)O)SC1=S
  cell number change: -29.1%
[2]
  AC50: 3.26 µM [falling, full curve, poor fit]
[1]
  AC50: 0.651 µM [falling, single point]

## CCCOc1ccc(NC(=O)CC2C(=O)Nc3ccccc3N2CC(=O)N2CCCC2)cc1 (centres undefined)
  cell number change: 1.61%
[1]
  AC50: 2.91 µM [rising, full curve]

## O=C1C=CC(=O)N1c1cccc(-c2ccccc2)c1
  cell number change: -59.4%
[2]
  AC50: 23.1 µM [falling, partial curve]
[1]
  AC50: 25.9 µM [falling, partial curve]

## CCCCN=c1sc(C(=O)OC)cc(=O)n1CCCC
  cell number change: 78.7%
[2]
  AC50: 16.4 µM [rising, single point]
[1]
  AC50: 29.1 µM [rising, single point]

## O=C(NC1CCCCC1)[C@@H]1CSC2c3ccccc3C(=O)N21 (some centres undefined)
  cell number change: 2.39%

## Cc1nn(Cc2c(Cl)cccc2Cl)c(C)c1NC(=O)c1cnn2c(C(F)F)cc(-c3ccccc3)nc12
  cell number change: -15.1%
[2]
  AC50: 0.184 µM [rising, full curve, poor fit]

## O=C(NC1CCCCC1)N1CCCCCCC1
  cell number change: 12.6%
[1]
  AC50: 0.517 µM [falling, single point]

## Cc1ccc(C(=O)N2CCN3C(=O)c4ccccc4C23c2ccc(Cl)cc2)cc1 (centres undefined)
  cell number change: 38.7%
[2]
  AC50: 10.3 µM [rising, partial curve]
[1]
  AC50: 6.51 µM [rising, single point]

## O=C(Cn1c(=O)oc2ccccc21)Nc1cccc(Cl)c1
  cell number change: 8.74%
[1]
  AC50: 29.1 µM [rising, single point]

## CCCc1cc(=O)oc2cc(OCC(=O)NC3CC(C)(C)NC(C)(C)C3)ccc12
  cell number change: 11.5%

## CCOc1ccc(N=C2SC(C(=O)Nc3ccccc3C#N)C(N)=C2C(=O)Nc2ccc(Cl)cc2)cc1 (centres undefined)
[1]
  AC50: 6.51 µM [falling, single point]

## CCOc1ccc(NC(=O)C2CCCN2S(=O)(=O)c2ccc3c(c2)C(C)(C)C(=O)N3C)cc1 (centres undefined)
  cell number change: 11.7%
[1]
  AC50: 29.1 µM [rising, single point]

## CCCCn1c(N)c(N(CCC(C)C)C(=O)C2=COCCO2)c(=O)[nH]c1=O
  cell number change: -1.74%
[1]
  AC50: 0.82 µM [falling, partial curve]

## CCC(CC)NC(=O)COC(=O)c1cccc(C)c1O
  cell number change: 66.6%
[2]
  AC50: 16.4 µM [rising, single point]
[1]
  AC50: 0.00461 µM [rising, full curve, poor fit]

## Cc1ccc(S(=O)(=O)N/N=C\c2cc3c(cc2Br)OCO3)cc1
  cell number change: 45.4%
[2]
  AC50: 10.3 µM [rising, partial curve]
[1]
  AC50: 9.2 µM [rising, partial curve]

## Nc1nnc(N2CCCCCC2)s1
  cell number change: 15.1%
[1]
  AC50: 4.11 µM [rising, single point]

## COc1cc(/C=C/C(=O)OCC(=O)N2CCC(Cc3ccccc3)CC2)ccc1O
  cell number change: 25.1%
[1]
  AC50: 29.1 µM [rising, single point]

## Cc1cccc(CCNC(=O)COc2cc(=O)n(C)c3ccccc23)c1
  cell number change: -48.6%
[2]
  AC50: 18.4 µM [falling, partial curve, poor fit]
[1]
  AC50: 0.326 µM [falling, full curve, poor fit]

## C=CCn1c(-c2cccn(Cc3cccc(Cl)c3)c2=O)n[nH]c1=S
  cell number change: -11.5%
[1]
  AC50: 23.1 µM [falling, single point]

## O=C(/C=C/c1ccco1)NC(=S)Nc1nc(-c2ccc3ccccc3c2)cs1
  cell number change: -2.19%
[1]
  AC50: 9.2 µM [rising, single point]

## C=CCn1c(C)cc(C(=O)COC(=O)/C=C/c2c(C)nn(C3CCS(=O)(=O)C3)c2Cl)c1C (centres undefined)
  cell number change: 21.5%
[2]
  AC50: 1.84 µM [rising, full curve, poor fit]

## COc1cccc(CC(=O)Nc2ccc(S(=O)(=O)Nc3nc(C)cc(C)n3)cc2)c1
  cell number change: -39.5%
[1]
  AC50: 32.6 µM [falling, partial curve, poor fit]

## CC(=O)c1cccc(NC(=O)N2C3CCCC2CC(NC(=O)C2CC2)C3)c1 (centres undefined)
  cell number change: 15%

## COc1ccc(C(=O)OC(C)C(=O)NC(C)CCc2ccccc2)cc1[N+](=O)[O-] (centres undefined)
  cell number change: 37.8%
[2]
  AC50: 25.9 µM [rising, single point]
